This passage reports odorant receptor activation results from the odorant receptor screen of Mainland et al. (2015).

Test systems include OR7C2 clone 1292; OR7D2 clone 1405; OR7D4 clone 1298; OR7E24 P242S clone 1314; OR7G1 clone 1295; OR7G2 clone 1475; OR7G3 clone 1297; OR8A1 clone 1503; OR8B12 clone 1731; OR8B4 E22G clone 1227; OR8B8 clone 1226; OR8B8 clone 1504; OR8D1 clone 1142; OR8D2 clone 1179; OR8G1 clone 1395; OR8G5 clone 1323.
Holding throughout (assay): odorant receptor activation (CRE luciferase / Renilla) (fold of no-odor wells); higher = more activation
Common to all, as to details: 100 µM

Assay [1] concerns OR7G2 V263A/F281V clone 1312.
The subject of assay [2] is OR8B3 H20R/Q24R/V34I/M114I clone 1727.
Assay [3] has as its system OR8B4 Y131H/C140F/C178R clone 1440.
The subject of assay [4] is OR8D4 C120Y/R133K/F200L/L283P/R298K clone 1072.

Molecules are shown by their SMILES. Several values for one entry are separate records, joined by “and”; a condition that tells them apart may be missing. Identical values can stand only once. This is one part of the list. Each value is one well over the wells without odorant, computed here; the data are noisy.

Consider `CCCCOC(C)=O` [butyl acetate], for which the odorant receptor activation in the assay with OR7C2 clone 1292 was found to be 0.623; in the assay on OR7D2 clone 1405 it was 0.321; with OR7D4 clone 1298, 0.733; with OR7E24 P242S clone 1314, 0.743; in the assay with OR7G1 clone 1295 it was 0.783; in [1], 0.745. In addition, the odorant receptor activation worked out at 1.31 in the assay with OR7G2 clone 1475; 0.756 in the assay with OR7G3 clone 1297; 1.17 in the assay with OR8A1 clone 1503; 0.788 in the assay with OR8B12 clone 1731; 0.487 in [2]; 0.962 in the assay on OR8B4 E22G clone 1227. Further, the odorant receptor activation in [3] was found to be 0.123; with OR8B8 clone 1226, 0.855; in the assay with OR8B8 clone 1504, 0.958; in the assay on OR8D1 clone 1142 it was 1.03; with OR8D2 clone 1179, 0.976; in [4] it was 1.18. The odorant receptor activation in the assay on OR8G1 clone 1395 was 0.227; in the assay on OR8G5 clone 1323, 0.731.
As for `CS` [methanethiol], the odorant receptor activation in the assay with OR7C2 clone 1292 turned out to be 1.01; in the assay with OR7D2 clone 1405, 0.878; in the assay with OR7D4 clone 1298, 0.847; with OR7E24 P242S clone 1314 it was 0.986; in the assay with OR7G1 clone 1295, 1.14; in assay [1], 0.889. The odorant receptor activation in the assay on OR7G2 clone 1475 stood at 1.11; with OR7G3 clone 1297, 0.932; in the assay on OR8A1 clone 1503, 0.903; in the assay on OR8B12 clone 1731 it was 0.864; in assay [2], 0.827; in the assay with OR8B4 E22G clone 1227 it was 1.17. In addition, the odorant receptor activation worked out at 1.03 in [3]; 1.12 in the assay with OR8B8 clone 1226; 0.895 in the assay on OR8B8 clone 1504; 0.781 with OR8D1 clone 1142; 0.834 in the assay on OR8D2 clone 1179; 0.963 in [4]. Moreover, the odorant receptor activation in the assay on OR8G1 clone 1395 was 1.13; in the assay with OR8G5 clone 1323 it was 0.826.
For `CCOc1cc(C=O)ccc1O` [ethyl vanillin], the odorant receptor activation was 0.606 and 0.865 in the assay on OR7C2 clone 1292; 1.28 and 1.14 in the assay on OR7D2 clone 1405; 2.52 and 0.902 with OR7D4 clone 1298; 1.02 and 1.31 with OR7E24 P242S clone 1314; 0.674 and 1.23 with OR7G1 clone 1295; 0.436 and 0.818 in assay [1]. Besides, the odorant receptor activation with OR7G2 clone 1475 was 1.31 and 2.05 and 0.954; in the assay on OR7G3 clone 1297, 1.03 and 1.02; in the assay with OR8A1 clone 1503, 1.1 and 1.75 and 1.53; in the assay with OR8B12 clone 1731, 0.855; in assay [2] it was 0.394; in the assay on OR8B4 E22G clone 1227 it was 0.98 and 1.23. Further, the odorant receptor activation was 1.17 and 1.47 in assay [3]; 1.26 and 1.05 in the assay on OR8B8 clone 1226; 1.25 and 1.52 and 0.975 with OR8B8 clone 1504; 2 and 1.27 with OR8D1 clone 1142; 1.28 and 1 in the assay with OR8D2 clone 1179; 1.24 and 1.07 in assay [4]. For the same compound, the odorant receptor activation in the assay on OR8G1 clone 1395 was 1.1 and 1.24; in the assay with OR8G5 clone 1323, 0.762 and 1.08.
With `CCC(C)=O` [2-butanone], the odorant receptor activation in the assay with OR7C2 clone 1292 worked out at 0.843; in the assay on OR7D2 clone 1405, 0.694; in the assay with OR7D4 clone 1298, 0.882; with OR7E24 P242S clone 1314, 0.786; with OR7G1 clone 1295 it was 1.28; in [1], 0.981. Besides, the odorant receptor activation in the assay with OR7G2 clone 1475 was found to be 1.02; with OR7G3 clone 1297, 0.521; in the assay with OR8A1 clone 1503, 1.02; in the assay with OR8B12 clone 1731 it was 0.9; in assay [2] it was 0.242; in the assay with OR8B4 E22G clone 1227 it was 0.774. The odorant receptor activation in [3] is 1.19; in the assay on OR8B8 clone 1226 it was 1.12; in the assay with OR8B8 clone 1504, 1.01; in the assay with OR8D1 clone 1142, 1.01; in the assay on OR8D2 clone 1179, 0.824; in [4] it was 2.56. The odorant receptor activation was found to be 0.844 in the assay on OR8G1 clone 1395 and 1.04 with OR8G5 clone 1323.
